Reference: PMC12648864 (Biology of Sex Differences, 2025)

System: plasma metabolites
Type: in vivo, rat
Procedure: Male and female SD rats were divided into experimental and control groups. Each group contained 10 male and 10 female rats. […] Blood was collected from orbital vein into sodium heparin-coated centrifugal tubes pre-chilled at 4 ℃, at 30 min, 2 h, and 12 h post-administration respectively. Plasma was separated by gentle inversion, immediately quenched in liquid nitrogen, and centrifuged at 1500 g for 10 min at 4 ℃. The prepared plasma was stored at − 80 ℃ until LC-MS/MS analysis.
The stored plasma samples were thawed at 4 °C, and 100 µL of each sample was transferred to a centrifuge tube. Proteins were precipitated using 1 mL of methanol/acetonitrile/water solution (2:2:1, v: v:v) at 4 °C. After vortex mixing, the sample mixture was sonicated for 30 min (ice was used to maintain the low-temperature conditions). The sonicated mixture was allowed to stand for 10 min at […], then centrifuged at 14,000 g for 20 min at 4 °C. The resulting supernatant was collected and dried under vacuum. For instrumental analysis, the dried supernatant was reconstituted in 100 µL of aqueous acetonitrile solution, vortexed, then centrifuged at 14,000 g for 15 min at 4 °C. To ensure instrument stability and data reliability, quality control samples were prepared and analyzed using random sampling.
Chromatographic conditions: separation was performed in a Waters Acquity UPLC BEH Amide column (1.7 μm, 2.1 × 100 mm). The column temperature was 25 ℃ and flow rate was 0.5 mL/min. The injection volume was 2 µL, with the mobile phases consisting of A: water + 25 mM ammonium acetate + 25 mM ammonia, and B: acetonitrile. The gradient elution program was as follows: 0–0.5 min, 95% B; 0.5–7 min, 95%−65% B; 7–8 min, 65%−40% B; 8–9 min, 40% B; 9–9.1 min, 40%−95%B; 9.1–12 min, 95%B.
MS conditions: Detection was carried out using electrospray ionization in both positive and negative ion modes. The following parameters were used: spray voltage, ± 5500 V; ionization temperature, 600 ℃; nebulization air pressure, 60 psi; auxiliary air pressure, 60 psi; air curtain air pressure, 30 psi; time-of-flight MS scanning range (m/z), 60–1000 Da; product ion scanning range, 25–1000 Da. The secondary mass spectra were acquired using information-dependent acquisition in high-resolution mode. The cone bore voltage was ± 60 V (positive and negative modes) and collision energy was 35 ± 15 eV.
Orthogonal partial least squares-discriminant analysis (OPLS-DA) were computed for control female and male rats. […] Differential metabolites were identified using stringent criteria: variable importance in projection (VIP) scores > 1 and statistically significant from t-test.
OPLS-DA scores were calculated for the control group and experimental male rats. […] Differential metabolites were identified using stringent selection criteria: VIP scores > 1.0 and P < 0.05, as derived from the OPLS-DA model.
We performed pairwise comparisons of metabolites between male and female rats in the experimental and control groups. […] We performed KEGG enrichment analysis on metabolites that differed between male and female rats in the experimental group (Fig. 6G-I).

[1] = test group male (TM3) vs female (TF3) rats at 30 minutes
[2] = test group male (TM5) vs female (TF5) rats at 2 hours
[3] = test male vs test female rats (TM5 vs TF5), 2 hour, after excluding blank-group and before/after-administration sex differences
[4] = test male vs test female rats (TM8 vs TF8), 12 hour, after excluding blank-group and before/after-administration sex differences
[5] = test male vs test female rats (TM8 vs TF8), 12 hour after strychnine

SMILES	Fold change (rat, in vivo)	Fold change [1]	Fold change [2]	Fold change [3]	Fold change [4]	Fold change [5]
CCCCCCCC/C=C\CCCCCCCC(=O)O[C@H](COC(=O)CCCCCCCCCCCCCCCCC)COP(=O)([O-])OCC[N+](C)(C)C	0.3801	0.4159	0.3884	0.3884	0.3801	
CCCCCCCC/C=C\CCCCCCCC(=O)OC[C@H](COP(=O)([O-])OCC[N+](C)(C)C)OC(=O)CCCCCCC/C=C\CCCCCCCC		1.495				
C[N+](C)(C)CCCC(=O)O		1.412	1.61	1.61		
CCCCC/C=C\C/C=C\CCCCCCCC(=O)OCC(O)CO (racemic) [MG(18:2(9Z,12Z)/0:0/0:0)[rac]]	0.05732	3.095	0.449	0.449	0.05732	
CCCCCCCCCCCCCC(=O)OC[C@@H](O)COP(=O)([O-])OCC[N+](C)(C)C [1-Myristoyl-sn-glycero-3-phosphocholine]		1.498	1.895			2.284
CCCCCCCC/C=C\CCCCCCCCOC[C@H](COP(=O)([O-])OCC[N+](C)(C)C)OC(C)=O [1-O-(cis-9-Octadecenyl)-2-O-acetyl-sn-glycero-3-phosphocholine]		2.309				0.463
CCCCCCCC/C=C\CCCCCCCC(=O)OC[C@@H](O)COP(=O)([O-])OCC[N+](C)(C)C [1-Oleoyl-sn-glycero-3-phosphocholine]		1.769	1.341	1.341		
CCCCCCCCCCCCCCCC(=O)OC[C@@H](O)COP(=O)([O-])OCC[N+](C)(C)C [1-Palmitoyl-sn-glycero-3-phosphocholine]		1.242	1.271	1.271		
CCCCCCCCCCCCCCCC(=O)OCC(O)CO (stereo not shown) [1-Palmitoylglycerol]		2.851	0.568			0.2262
CCCCCCCCCCCCCCCCCC(=O)OC[C@@H](O)COP(=O)([O-])OCC[N+](C)(C)C [1-Stearoyl-sn-glycerol 3-phosphocholine]			0.3627			
Cc1c[nH]c(=O)nc1N [5-Methylcytosine]		0.4844	0.7224	0.7224		
CC(C)CCC[C@@H](C)[C@H]1CC[C@H]2[C@@H]3C(=O)C=C4C[C@@H](O)CC[C@]4(C)[C@H]3CC[C@]12C [7-Oxocholesterol]		1.996				
C[C@]12CCC(=O)C=C1CC[C@@H]1[C@@H]2CC[C@]2(C)C(=O)CC[C@@H]12 [Androstendione]		0.5554	0.4044	0.4044		
C=C1CC[C@H](O)C/C1=C/C=C1\CCC[C@]2(C)[C@@H]([C@H](C)CCCC(C)C)CC[C@@H]12 [Cholecalciferol (Vitamin D3)]		0.4233				
CN1CC(=O)NC1=N [Creatinine]			0.6023			
NC1CCCCC1 [Cyclohexylamine]		1.868				
Nc1cc[nH]c(=O)n1 [Cytosine]						0.7061
O=C(O)[C@H]1CCCN1 [D-Proline]						0.5579
Nc1ccn([C@H]2C[C@H](O)[C@@H](CO)O2)c(=O)n1 [Deoxycytidine]			0.7601		0.6664	0.6664
O=C(O)[C@@H]1CCCCN1 [L-Pipecolic acid]			0.524			0.4481
CC(C)CCC[C@@H](C)[C@H]1CC[C@H]2C3=CC[C@H]4C[C@@H](O)CC[C@]4(C)[C@H]3CC[C@]12C [Lathosterol]		0.4073				3.957
CCCCC/C=C\C/C=C\CCCCCCCC(=O)O [Linoleic acid]					0.11	0.11
CCCCCCCCCCCCC/C=C/[C@@H](O)[C@H](CO)NC(=O)CCCCCCCCCCCCCCC [N-Palmitoylsphingosine]						2.061
COc1ccc(-c2cc(=O)c3c(OC)c(OC)c(OC)c(OC)c3o2)cc1OC [Nobiletin]			0.09874			
CCCCCCCCCCCCCCCC(=O)OC[C@H](COP(=O)([O-])OCC[N+](C)(C)C)OC(=O)CCCCCCCCCCCCCCC [PC(16:0/16:0)]		2.09	1.754	1.754		
COc1ccc(-c2cc(=O)c3c(OC)c(OC)c(OC)c(OC)c3o2)cc1 [Tangeritin]			0.1259			
CCCCCCCCCCCCCCCCSC[C@H](COP(=O)(O)OCC[N+](C)(C)C)NC(=O)CCCCCCCCCCCCCCC [Thioetheramide-PC]		1.621	1.595	1.595		
Cc1c[nH]c(=O)[nH]c1=O [Thymine]			0.4499	0.4499	0.3532	0.3532
C[n+]1cccc(C(=O)[O-])c1 [Trigonelline]		1.929	1.556			
NCCc1ccc(O)cc1 [Tyramine]					0.6121	0.6121

Read-outs that look alike come from different tables or passages of the source.
